# Test results: patent US20240398896A1, “INFLAMMASOME INHIBITION” (National University of Singapore, priority 2021, published 2024)
# B1: hupa4 ASC2: human ASC2 with 4 key sites substituted simultaneously with the ones in bat ASC2, SEQ ID NO:6 (protein)
# chain: MGTKREAILEVLENLTPEELKKFKMKLGTVPLREGFRRIPRGALGQLDIVDLTDKLVASYCEDYAAELVVAVLRDMGMLEEAARLQRAA
# B2: bat ASC2: ASC2 (PYRIN-only protein) of the bat Pteropus alecto, SEQ ID NO:11; expressed from vectors or as Dox-inducible transgene (protein)
# chain: MGKKRDAILEALENLTADELKKFKLKLGAAPLRQGFRNIPRGALGPLDAVDLTDKLVAFYCEDYGAELTAVVLRDIGMQEEAERLQGVA
# Key:
# HEK293T cells = assay: ASC2-His protein expression on overexpression in HEK293T cells (immunoblot); settings: compared to human ASC2
# [1] = test system: P. alecto kidney (PaKi) cells; assay: ASC2-His protein expression on overexpression in bat kidney (PaKi) cells (immunoblot); design: species or system Pteropus alecto; settings: compared to human ASC2
molecule,measurement,setting,value
B1,ASC2 protein expression (anti-His signal normalized to β-actin),HEK293T cells,enhanced protein expression
same,ASC2 protein expression (anti-His signal normalized to β-actin),[1],enhanced protein expression
B2,ASC2 protein expression (anti-His signal normalized to β-actin),HEK293T cells,higher protein level
same,ASC2 protein expression (anti-His signal normalized to β-actin),[1],higher protein level
